This continues a long series; more values of the same kind are listed elsewhere.
Experiment: Tissue distribution of radioactivity by Quantitative Whole-Body Autoradiography (QWBA), Group 4
Type: in vivo
Details: rat, single IV 2 mg/kg
Description: A study was conducted to determine the pharmacokinetics, rates and routes of excretion with mass baseline and tissue distribution of radioactivity, after a single intravenous dose administration of formula XIII (also referred to as [^14C]DAP) was administered to the rats by tail vein intravenous injection at a
The study was conducted on 19 male rats divided into 4 groups. The first group of 6 rats was used for blood collection (Group 1); the second group of 4 rats was used for urine, feces, cage rinses and wipes and carcasses collection (Group 2); the third group of 4 rats was used for expired air collection (Group 3); the fourth group of 5 rats was used for terminal blood/serum and tissue distribution by Quantitative Whole-Body Autoradiography (QWBA) (Group 4).
For Group 4, formula XIII (QWBA was run at 1, 8, 12, 24 and 72 hours post dose. After terminal blood collection, each euthanized animal was frozen in a hexane/dry ice bath and embedded in a 2% carboxymethylcellulose matrix according to MPI Research SOP ADME-112. The embedded carcasses were sectioned according to MPI Research SOP ADME-113 on a Leica CM3600 Cyromacrotome set to maintain −10 to −30° C. At least four fortified quality control standards of known radioactive concentration were placed into the frozen block prior to sectioning and used for section thickness quality control. The quality control standards were sectioned under the same conditions as the specimen. The intrasection and intersection variation of collected sections were determined by analyzing the quality control standards. Section variation must be less than 20% for quantitative analysis. Sections that were approximately 40μm thick were taken in the sagittal plane. Appropriate sections selected at various levels of interest in the block were collected to encompass the following tissues, organs, and biological fluids, where possible: adrenal gland, bladder (urinary) and contents (urine), blood (cardiac), bone, bone marrow, brain, eye, fat (brown), fat (white), heart, kidney, large intestine/cecum and contents, liver, lung, muscle, pancreas, prostate, salivary glands, skin, small intestine and contents, spleen, stomach and contents, testes, thymus, thyroid, mesenteric lymph nodes, and epididymis. A set of sections were mounted, exposed to phosphor imaging screens and scanned using the Storm 860 image acquisition system according to MPI Research SOP ADME-112. Quantification, relative to the calibration standards, were performed by image densitometry using MCID™ image analysis software according to MPI Research SOP ADME-114. A standard curve was constructed from the integrated response (MDC/mm2) and the nominal concentrations of the [^14C]Glucose calibration standards. Relative error should be less than 0.5 for each point on the curve. The concentrations of radioactivity were expressed as μCi/g and were converted to μg or ng-equivalents of DAP per gram of sample (μg- or ng-eq/g) using the specific activity of administered [^14C]DAP dose formulation. A lower limit of quantification (LLOQ) was applied to the data. The LLOQ was determined using the radioactive concentration of the lowest calibration standard used to generate a calibration curve divided by the specific activity of the dose formulation (μCi/ug). Artifacts, such as those produced by dislodged contents of the alimentary canal, were excluded from analysis during image analysis.

## [2H]C1([2H])N(CCCNC(=O)[C@@H](N)CCCNC(=N)N)C([2H])([2H])C([2H])([2H])N(CCCNC(=O)[C@@H](N)CCCNC(=N)N)C1([2H])[2H] [formula XIII]
12 Hours
  Concentration of Radioactivity in Esophagus: 1288 ng Equivalents [^14C]DAP/g
  Concentration of Radioactivity in Exorbital gland: 1733 ng Equivalents [^14C]DAP/g
  Concentration of Radioactivity in Eye (lens): 176 ng Equivalents [^14C]DAP/g
  Concentration of Radioactivity in Fat (brown): 1689 ng Equivalents [^14C]DAP/g
  Concentration of Radioactivity in Fat (white): 494 ng Equivalents [^14C]DAP/g
  Concentration of Radioactivity in Harderian gland: 1004 ng Equivalents [^14C]DAP/g
  Concentration of Radioactivity in Intraorbital gland: 1632 ng Equivalents [^14C]DAP/g
  Concentration of Radioactivity in Large intestine: 3594 ng Equivalents [^14C]DAP/g
  Concentration of Radioactivity in Lung: 1534 ng Equivalents [^14C]DAP/g
  Concentration of Radioactivity in Lymph nodes: 2743 ng Equivalents [^14C]DAP/g
  Concentration of Radioactivity in Muscle: 341 ng Equivalents [^14C]DAP/g
  Concentration of Radioactivity in Myocardium: 912 ng Equivalents [^14C]DAP/g
  Concentration of Radioactivity in Nasal turbinates: 3378 ng Equivalents [^14C]DAP/g
  Concentration of Radioactivity in Olfactory lobe: 435 ng Equivalents [^14C]DAP/g
  Concentration of Radioactivity in Pancreas: 3058 ng Equivalents [^14C]DAP/g
  Concentration of Radioactivity in Pituitary gland: 2155 ng Equivalents [^14C]DAP/g
  Concentration of Radioactivity in Preputial gland: 1611 ng Equivalents [^14C]DAP/g
  Concentration of Radioactivity in Prostate gland: 9639 ng Equivalents [^14C]DAP/g
  Concentration of Radioactivity in Salivary gland: 2710 ng Equivalents [^14C]DAP/g
  Concentration of Radioactivity in Seminal vesicles: 283 ng Equivalents [^14C]DAP/g
  Concentration of Radioactivity in Skin: 1982 ng Equivalents [^14C]DAP/g
  Concentration of Radioactivity in Small intestinal contents: 1305 ng Equivalents [^14C]DAP/g
  Concentration of Radioactivity in Spleen: 1793 ng Equivalents [^14C]DAP/g
  Concentration of Radioactivity in Stomach: 1015 ng Equivalents [^14C]DAP/g
  Concentration of Radioactivity in Testes: 415 ng Equivalents [^14C]DAP/g
  Concentration of Radioactivity in Thyroid gland: 2667 ng Equivalents [^14C]DAP/g
  Concentration of Radioactivity in Vitreous humor: 261 ng Equivalents [^14C]DAP/g
24 Hours
  Concentration of Radioactivity in Adrenal gland: 564 ng Equivalents [^14C]DAP/g
  Concentration of Radioactivity in Blood: 209 ng Equivalents [^14C]DAP/g
  Concentration of Radioactivity in Bone: 506 ng Equivalents [^14C]DAP/g
  Concentration of Radioactivity in Bulbourethral gland: 535 ng Equivalents [^14C]DAP/g
  Concentration of Radioactivity in Cecum: 1256 ng Equivalents [^14C]DAP/g
  Concentration of Radioactivity in Cecum contents: 814 ng Equivalents [^14C]DAP/g
  Concentration of Radioactivity in Cerebellum: 298 ng Equivalents [^14C]DAP/g
  Concentration of Radioactivity in Cerebrum: 397 ng Equivalents [^14C]DAP/g
  Concentration of Radioactivity in Diaphragm: 448 ng Equivalents [^14C]DAP/g
  Concentration of Radioactivity in Epididymis: 722 ng Equivalents [^14C]DAP/g
  Concentration of Radioactivity in Esophageal contents: 196 ng Equivalents [^14C]DAP/g
  Concentration of Radioactivity in Esophagus: 822 ng Equivalents [^14C]DAP/g
  Concentration of Radioactivity in Exorbital gland: 931 ng Equivalents [^14C]DAP/g
  Concentration of Radioactivity in Fat (brown): 1441 ng Equivalents [^14C]DAP/g
  Concentration of Radioactivity in Fat (white): 527 ng Equivalents [^14C]DAP/g
  Concentration of Radioactivity in Harderian gland: 897 ng Equivalents [^14C]DAP/g
  Concentration of Radioactivity in Intraorbital gland: 1059 ng Equivalents [^14C]DAP/g
  Concentration of Radioactivity in Large intestine: 2068 ng Equivalents [^14C]DAP/g
  Concentration of Radioactivity in Liver: 2049 ng Equivalents [^14C]DAP/g
  Concentration of Radioactivity in Lung: 1087 ng Equivalents [^14C]DAP/g
  Concentration of Radioactivity in Lymph nodes: 1348 ng Equivalents [^14C]DAP/g
  Concentration of Radioactivity in Medulla: 200 ng Equivalents [^14C]DAP/g
  Concentration of Radioactivity in Muscle: 279 ng Equivalents [^14C]DAP/g
  Concentration of Radioactivity in Myocardium: 538 ng Equivalents [^14C]DAP/g
  Concentration of Radioactivity in Nasal turbinates: 2635 ng Equivalents [^14C]DAP/g
  Concentration of Radioactivity in Olfactory lobe: 614 ng Equivalents [^14C]DAP/g
  Concentration of Radioactivity in Pancreas: 1702 ng Equivalents [^14C]DAP/g
  Concentration of Radioactivity in Pituitary gland: 1463 ng Equivalents [^14C]DAP/g
  Concentration of Radioactivity in Preputial gland: 927 ng Equivalents [^14C]DAP/g
  Concentration of Radioactivity in Prostate gland: 5272 ng Equivalents [^14C]DAP/g
  Concentration of Radioactivity in Salivary gland: 1447 ng Equivalents [^14C]DAP/g
  Concentration of Radioactivity in Seminal vesicles: 183 ng Equivalents [^14C]DAP/g
  Concentration of Radioactivity in Skin: 1073 ng Equivalents [^14C]DAP/g
  Concentration of Radioactivity in Small intestinal contents: 462 ng Equivalents [^14C]DAP/g
  Concentration of Radioactivity in Spleen: 1007 ng Equivalents [^14C]DAP/g
  Concentration of Radioactivity in Stomach: 861 ng Equivalents [^14C]DAP/g
  Concentration of Radioactivity in Testes: 330 ng Equivalents [^14C]DAP/g
  Concentration of Radioactivity in Thyroid gland: 1641 ng Equivalents [^14C]DAP/g
  Concentration of Radioactivity in Vitreous humor: 309 ng Equivalents [^14C]DAP/g
72 Hours
  Concentration of Radioactivity in Adrenal gland: 341 ng Equivalents [^14C]DAP/g
  Concentration of Radioactivity in Cecum contents: 421 ng Equivalents [^14C]DAP/g
  Concentration of Radioactivity in Cerebrum: 182 ng Equivalents [^14C]DAP/g
  Concentration of Radioactivity in Diaphragm: 206 ng Equivalents [^14C]DAP/g
  Concentration of Radioactivity in Exorbital gland: 304 ng Equivalents [^14C]DAP/g
  Concentration of Radioactivity in Fat (brown): 593 ng Equivalents [^14C]DAP/g
  Concentration of Radioactivity in Fat (white): 236 ng Equivalents [^14C]DAP/g
  Concentration of Radioactivity in Harderian gland: 458 ng Equivalents [^14C]DAP/g
  Concentration of Radioactivity in Intraorbital gland: 298 ng Equivalents [^14C]DAP/g
  Concentration of Radioactivity in Large intestine: 646 ng Equivalents [^14C]DAP/g
  Concentration of Radioactivity in Liver: 774 ng Equivalents [^14C]DAP/g
  Concentration of Radioactivity in Lung: 545 ng Equivalents [^14C]DAP/g
  Concentration of Radioactivity in Lymph nodes: 550 ng Equivalents [^14C]DAP/g
  Concentration of Radioactivity in Myocardium: 264 ng Equivalents [^14C]DAP/g
  Concentration of Radioactivity in Nasal turbinates: 1204 ng Equivalents [^14C]DAP/g
  Concentration of Radioactivity in Olfactory lobe: 213 ng Equivalents [^14C]DAP/g
  Concentration of Radioactivity in Pancreas: 360 ng Equivalents [^14C]DAP/g
  Concentration of Radioactivity in Pituitary gland: 638 ng Equivalents [^14C]DAP/g
  Concentration of Radioactivity in Preputial gland: 639 ng Equivalents [^14C]DAP/g
  Concentration of Radioactivity in Prostate gland: 4484 ng Equivalents [^14C]DAP/g
  Concentration of Radioactivity in Salivary gland: 487 ng Equivalents [^14C]DAP/g
  Concentration of Radioactivity in Skin: 375 ng Equivalents [^14C]DAP/g
  Concentration of Radioactivity in Small intestinal contents: 320 ng Equivalents [^14C]DAP/g
  Concentration of Radioactivity in Spleen: 408 ng Equivalents [^14C]DAP/g
  Concentration of Radioactivity in Stomach: 473 ng Equivalents [^14C]DAP/g
  Concentration of Radioactivity in Thyroid gland: 510 ng Equivalents [^14C]DAP/g
